PubChem BioAssay AID743454 – Peter MacCallum Cancer Centre | 2014
Here is an unselected part of about 18,000 reagents. Of all reagents, 450 (2.5%) are marked active. 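Single biological run; no consistent viability z cut-off exists, so the class columns, not z-scores, define the calls.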

Assay: 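Knock-downs lowering viability or raising caspase 3/7 activity in vorinostat-treated resistant cells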 (primary screen)
Cell system: human HCT116-VR colon cancer cells, selected for vorinostat resistance
Reagents: siRNA pool against human genes, 40 nM siRNA pool
Timing: vorinostat for 24 h, read-out about 72 h after transfection
Treatment: vorinostat at 2.5 µM final
Measurement: 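Cell viability by CellTiter-Fluor and caspase 3/7 activity by luminescence, each scaled to mock wells per plate, duplicates averaged, then robust z-scored over all plates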
Scale: viability robust z-score: higher = more viable cells than screen typical; caspase robust z-score: higher = more caspase 3/7 activity than screen typical
Call rule: 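Hits are knock-downs in viability class RV1/RV2 or caspase class CA1/CA2, excluding ones that killed cells in the no-drug cell-count arm; hits then retested with single siRNAs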

DCTN6 (dynactin subunit 6)
- viability hit class: no change
- caspase hit class: no change
- viability robust z-score: -1.36
- caspase robust z-score: 0.31
- outcome: inactive

SDHAF3 (succinate dehydrogenase complex assembly factor 3)
- viability hit class: no change
- caspase hit class: no change
- viability robust z-score: 0.22
- caspase robust z-score: -0.4
- outcome: inactive

TMEM223 (transmembrane protein 223)
- viability hit class: no change
- caspase hit class: no change
- viability robust z-score: -0.08
- caspase robust z-score: -0.82
- outcome: inactive

RBP4 (retinol binding protein 4)
- viability hit class: no change
- caspase hit class: no change
- viability robust z-score: -2.58
- caspase robust z-score: 2.96
- outcome: inactive

GNAS (GNAS complex locus)
- viability hit class: no change
- caspase hit class: no change
- viability robust z-score: -1.29
- caspase robust z-score: 1.9
- outcome: inactive

IVD (isovaleryl-CoA dehydrogenase)
- viability hit class: no change
- caspase hit class: no change
- viability robust z-score: 1.7
- caspase robust z-score: -0.1
- outcome: inactive

SLC35D3
- viability hit class: no change
- caspase hit class: no change
- viability robust z-score: -0.7
- caspase robust z-score: -0.62
- outcome: inactive

ACTN3 (actinin alpha 3)
- viability hit class: no change
- caspase hit class: no change
- viability robust z-score: 0.97
- caspase robust z-score: -0.32
- outcome: inactive

SPANXA1
- viability hit class: no change
- caspase hit class: no change
- viability robust z-score: -2.57
- caspase robust z-score: -0.4
- outcome: inactive

PRICKLE1 (prickle planar cell polarity protein 1)
- viability hit class: no change
- caspase hit class: no change
- viability robust z-score: -0.55
- caspase robust z-score: -0.82
- outcome: inactive

LSM14B (LSM family member 14B)
- viability hit class: no change
- caspase hit class: no change
- viability robust z-score: -0.05
- caspase robust z-score: -0.86
- outcome: inactive

OR10A7 (olfactory receptor family 10 subfamily A member 7)
- viability hit class: no change
- caspase hit class: no change
- viability robust z-score: 1.46
- caspase robust z-score: 3.51
- outcome: inactive

DAG1 (dystroglycan 1)
- viability hit class: no change
- caspase hit class: no change
- viability robust z-score: -0.1
- caspase robust z-score: 0.3
- outcome: inactive

GPR22 (G protein-coupled receptor 22)
- viability hit class: no change
- caspase hit class: no change
- viability robust z-score: 1.21
- caspase robust z-score: 0.01
- outcome: inactive

PSORS1C1 (psoriasis susceptibility 1 candidate 1)
- viability hit class: no change
- caspase hit class: no change
- viability robust z-score: 0.06
- caspase robust z-score: 1.32
- outcome: inactive

ZNF610 (zinc finger protein 610)
- viability hit class: no change
- caspase hit class: no change
- viability robust z-score: -0.6
- caspase robust z-score: 1.42
- outcome: inactive

UBE2R2 (ubiquitin conjugating enzyme E2 R2)
- viability hit class: no change
- caspase hit class: no change
- viability robust z-score: -0.09
- caspase robust z-score: 2.72
- outcome: inactive

LRP2 (LDL receptor related protein 2)
- viability hit class: no change
- caspase hit class: no change
- viability robust z-score: -1.13
- caspase robust z-score: 0.08
- outcome: inactive

UBQLNL (ubiquilin like)
- viability hit class: no change
- caspase hit class: no change
- viability robust z-score: 1.04
- caspase robust z-score: 0.48
- outcome: inactive

PUS7L (pseudouridine synthase 7 like)
- viability hit class: no change
- caspase hit class: no change
- viability robust z-score: -1.02
- caspase robust z-score: -1.17
- outcome: inactive

C19orf73 (chromosome 19 open reading frame 73)
- viability hit class: no change
- caspase hit class: no change
- viability robust z-score: 0.9
- caspase robust z-score: 0.05
- outcome: inactive

HOXA10 (homeobox A10)
- viability hit class: no change
- caspase hit class: no change
- viability robust z-score: -0.1
- caspase robust z-score: 0.04
- outcome: inactive

TMEM230 (transmembrane protein 230)
- viability hit class: no change
- caspase hit class: no change
- viability robust z-score: -0.29
- caspase robust z-score: -1.02
- outcome: inactive

RIN2 (Ras and Rab interactor 2)
- viability hit class: no change
- caspase hit class: no change
- viability robust z-score: 0.46
- caspase robust z-score: -0.42
- outcome: inactive

ILF3 (interleukin enhancer binding factor 3)
- viability hit class: no change
- caspase hit class: no change
- viability robust z-score: -2.16
- caspase robust z-score: 0.78
- outcome: inactive

EEF1AKMT1 (EEF1A lysine methyltransferase 1)
- viability hit class: no change
- caspase hit class: no change
- viability robust z-score: 0.51
- caspase robust z-score: 1.79
- outcome: inactive

ANGPT2 (angiopoietin 2)
- viability hit class: no change
- caspase hit class: no change
- viability robust z-score: -0.15
- caspase robust z-score: 0.76
- outcome: inactive

3 entries from above, reformatted.
{"gene symbol": "ILF3 (interleukin enhancer binding factor 3)", "viability hit class": "no change", "caspase hit class": "no change", "viability robust z-score": -2.16, "caspase robust z-score": 0.78, "outcome": "inactive"}
{"gene symbol": "EEF1AKMT1 (EEF1A lysine methyltransferase 1)", "viability hit class": "no change", "caspase hit class": "no change", "viability robust z-score": 0.51, "caspase robust z-score": 1.79, "outcome": "inactive"}
{"gene symbol": "ANGPT2 (angiopoietin 2)", "viability hit class": "no change", "caspase hit class": "no change", "viability robust z-score": -0.15, "caspase robust z-score": 0.76, "outcome": "inactive"}
